Measured values published in the supplement of paper PMC11006884.
This list holds what a sample rich in targets with a hit left over. Single values of this set are uncertain. This is a selection; strong and weak results do not stand in their true shares.

Each target was assayed with COC(=O)/C=C/c1ccccc1 [methyl cinnamate] (assay: log2 ratio of iodoacetamide-alkyne labeling of the cysteine site, DMSO over compound (competition); higher = stronger covalent engagement of the cysteine by the compound, active = 1 or more). Conditions: 500 µM; treatment time 1 h; system: HEK293T cell lysate.
In short: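 After 1 h at ambient temperature with vehicle or electrophile (500 µM), HEK293T lysate (2 mg/mL) was labelled for 1 h with iodoacetamide alkyne and clicked to sCIP-TMT reagents. Pooled samples were trypsin-digested overnight at 37 °C, streptavidin-enriched, acid-eluted and analysed by Orbitrap Eclipse LC-MS/MS with FAIMS, then quantified in FragPipe over three replicates with duplicate channels. A cysteine's log2 competition ratio is its mean control-channel over mean compound-channel reporter intensity. Cysteines quantified in only one replicate were not included.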

log2 ratio of iodoacetamide-alkyne labeling, inactive:
ACO2 C451 (UniProt Q99798) 0.0944, EHMT2 C1115 (UniProt Q96KQ7) 0.309, RPRD1A C151 (UniProt Q96P16) 0.255, ZNF830 C314 (UniProt Q96NB3) -0.062, CCT7 C364 (UniProt Q99832) 0.0488, FBXL18 C423 (UniProt Q96ME1) 0.0962, RPRD1A C100 (UniProt Q96P16) 0.0914, CNN2 C215 (UniProt Q99439) 0.241, VRK1 C220 (UniProt Q99986) 0.165, ADO C258 (UniProt Q96SZ5) 0.116, VPS39 C681 (UniProt Q96JC1) -0.18, ACO2 C385 (UniProt Q99798) 0.35, MIPEP C518 (UniProt Q99797) -0.351, PYURF C60 (UniProt Q96I23) 0.311, NACC1 C464 (UniProt Q96RE7) 0.0736, MMS19 C723 (UniProt Q96T76) -0.297, NSD1 C2508 (UniProt Q96L73) 0.482, RANBP9 C610 (UniProt Q96S59) 0.213, PTPN18 C310 (UniProt Q99952) 0.277, SRPK1 C356 (UniProt Q96SB4) 0.186, PARK7 C53 (UniProt Q99497) -0.276, RBM14 C108 (UniProt Q96PK6) 0.0314, TBCB C83 (UniProt Q99426) 0.102, DDX50 C633 (UniProt Q9BQ39) 0.161, SMG1 C1373 (UniProt Q96Q15) 0.218, MMS19 C331 (UniProt Q96T76) -0.219, PSMD1 C806 (UniProt Q99460) 0.352, ARAP1 C774 (UniProt Q96P48) 0.769, NUDCD1 C7 (UniProt Q96RS6) -0.465, SNX27 C30 (UniProt Q96L92) 0.159, UniProt Q96JG6_C136 0.0399, CRBN C287 (UniProt Q96SW2) 0.342, VRK1 C250 (UniProt Q99986) -0.321, RUFY1 C544 (UniProt Q96T51) -0.124, ITCH C57 (UniProt Q96J02) 0.398, ITCH C871 (UniProt Q96J02) 0.0624, UniProt Q96L50_C246 0.337
